# Laboratory results reported in patent US7713960B2, “Inhibition of the Raf/Mek/P-Erk pathway for treating cancer” (University of South Florida, priority 2005, dated 2010).
# For at least one compound, name, drawing or mass did not settle the structure.
# Tested on: Rap-1
# Test: Rap-1 activation assay, ACHN cells
# Assay type: cell-based, human
# Conditions: 10 μM, 1 hour
# Experimental: The effect of B2AR stimulation on Rap1 was investigated using the following methods: A Rap-1 activation assay kit (Upstate, Temecula, Calif.) was used according to protocol to determine if stimulation of the B2AR by ARA-211, and subsequent downstream signaling resulting in inhibition of P-Erk 1/2, is mediated by activation of Rap-1 directly by the Rap-1 guanine nucleotide exchange factor Epac. […] Cells were incubated with drugs for 1 hour unless noted otherwise. Cells were then lysed, the positive control lysate was incubated with 10 mM EDTA and 100 μM GTPγS and incubated for 30 minutes to load GTP onto Rap-1. Lysates from all samples were then incubated with 25 μg GST-RalGDS-Rap-1 binding domain beads for 45 minutes, washed with assay buffer 3×, resuspended in 40 μl of 2×Laemmli sample buffer and boiled for 5 minutes. Samples were resolved by SDS-PAGE electrophoresis, transferred to nitrocellulose, blotted overnight with 1 μ/ml polyclonal anti-Rap-1, and visualized by chemiluminescence.
structure (smiles),measurement,value
C=C[C@@]1(C)CC(=O)[C@]2(O)[C@@]3(C)[C@@H](O)CCC(C)(C)[C@@H]3[C@H](O)[C@H](OC(C)=O)[C@@]2(C)O1 [forskolin],Rap-1 activation (GTP-loaded Rap-1),activated Rap-1
